Results taken from publication PMC9844029.

Each substance was assayed against T1, ARGONAUTE 1 (Arabidopsis thaliana (endogenous in Col-0 background plants)) (UniProt O04379) (assay: co-IP; endogenous AGO1 immunoprecipitated from tissue lysate of P1/HC-Pro plants with homemade polyclonal α-AGO1 IgG on protein A beads, 4 °C, 2 h; IP buffer 50 mM Tris-HCl pH 7.5, 150 mM NaCl, 5 mM MgCl2, 0.1% Nonidet P-40, 10% glycerol, 5 mM DTT; HC-Pro looked for by western blot).
T1 sequence: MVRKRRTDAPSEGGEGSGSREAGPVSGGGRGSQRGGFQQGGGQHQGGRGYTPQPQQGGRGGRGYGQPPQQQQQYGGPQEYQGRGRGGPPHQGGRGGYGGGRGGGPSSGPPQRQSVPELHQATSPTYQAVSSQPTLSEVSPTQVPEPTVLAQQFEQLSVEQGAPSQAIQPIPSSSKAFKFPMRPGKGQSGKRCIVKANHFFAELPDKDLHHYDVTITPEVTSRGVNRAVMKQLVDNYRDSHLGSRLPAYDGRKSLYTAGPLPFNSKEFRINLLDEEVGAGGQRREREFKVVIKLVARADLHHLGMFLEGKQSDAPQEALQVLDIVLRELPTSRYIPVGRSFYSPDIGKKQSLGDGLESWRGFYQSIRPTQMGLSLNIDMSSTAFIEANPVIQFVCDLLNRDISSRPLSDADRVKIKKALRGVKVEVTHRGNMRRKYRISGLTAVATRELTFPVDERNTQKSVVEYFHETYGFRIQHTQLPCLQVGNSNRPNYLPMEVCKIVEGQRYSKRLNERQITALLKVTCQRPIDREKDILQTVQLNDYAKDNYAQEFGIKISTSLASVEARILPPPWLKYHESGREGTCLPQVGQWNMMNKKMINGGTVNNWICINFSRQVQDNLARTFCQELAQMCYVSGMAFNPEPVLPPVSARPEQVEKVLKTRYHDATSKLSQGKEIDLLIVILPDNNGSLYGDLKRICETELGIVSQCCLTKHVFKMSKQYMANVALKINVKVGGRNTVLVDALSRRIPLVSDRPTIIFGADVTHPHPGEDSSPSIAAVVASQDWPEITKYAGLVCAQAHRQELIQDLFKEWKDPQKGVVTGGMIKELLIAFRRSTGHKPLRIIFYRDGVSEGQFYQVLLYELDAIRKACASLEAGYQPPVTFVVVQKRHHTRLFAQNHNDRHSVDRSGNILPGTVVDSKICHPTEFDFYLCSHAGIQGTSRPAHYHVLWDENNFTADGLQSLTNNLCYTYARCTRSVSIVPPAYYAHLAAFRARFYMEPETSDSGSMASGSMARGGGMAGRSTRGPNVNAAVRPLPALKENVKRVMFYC

Substance	binding
TEV HC-Pro (tobacco etch virus)	no binding
TuMV HC-Pro (turnip mosaic virus)	no binding
ZYMV HC-Pro (zucchini yellow mosaic virus)	no binding

These are yes or no findings as the source states them, for the method shown. In cells and extracts the contact can be indirect.
